This is an account of results in article PMC7864070.

Protein sequences, listed by entry. Tags and fused reporters are not part of them. Lines headed by an entry give the natural chain unless they say otherwise; changes in a name come on top. Chains listed by the source or under a name are the forms on record and can include a tag or linker. Residues count along the entry.
eYFP-ATZ (enhanced YFP-tagged α1-antitrypsin Z, E342K), expressed in Huh7.5 cells (P01009, form named): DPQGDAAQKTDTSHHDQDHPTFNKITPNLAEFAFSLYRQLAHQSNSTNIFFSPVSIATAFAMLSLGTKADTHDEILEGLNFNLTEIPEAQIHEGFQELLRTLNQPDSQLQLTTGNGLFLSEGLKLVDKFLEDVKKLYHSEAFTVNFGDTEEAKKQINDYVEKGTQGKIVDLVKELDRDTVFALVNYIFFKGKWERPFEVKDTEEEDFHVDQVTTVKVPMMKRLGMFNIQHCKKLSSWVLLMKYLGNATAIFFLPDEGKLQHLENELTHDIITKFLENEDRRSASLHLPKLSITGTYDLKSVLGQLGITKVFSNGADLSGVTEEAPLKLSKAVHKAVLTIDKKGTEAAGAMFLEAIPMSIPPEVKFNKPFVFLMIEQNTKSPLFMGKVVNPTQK
UniProt P11021, residues 19-654: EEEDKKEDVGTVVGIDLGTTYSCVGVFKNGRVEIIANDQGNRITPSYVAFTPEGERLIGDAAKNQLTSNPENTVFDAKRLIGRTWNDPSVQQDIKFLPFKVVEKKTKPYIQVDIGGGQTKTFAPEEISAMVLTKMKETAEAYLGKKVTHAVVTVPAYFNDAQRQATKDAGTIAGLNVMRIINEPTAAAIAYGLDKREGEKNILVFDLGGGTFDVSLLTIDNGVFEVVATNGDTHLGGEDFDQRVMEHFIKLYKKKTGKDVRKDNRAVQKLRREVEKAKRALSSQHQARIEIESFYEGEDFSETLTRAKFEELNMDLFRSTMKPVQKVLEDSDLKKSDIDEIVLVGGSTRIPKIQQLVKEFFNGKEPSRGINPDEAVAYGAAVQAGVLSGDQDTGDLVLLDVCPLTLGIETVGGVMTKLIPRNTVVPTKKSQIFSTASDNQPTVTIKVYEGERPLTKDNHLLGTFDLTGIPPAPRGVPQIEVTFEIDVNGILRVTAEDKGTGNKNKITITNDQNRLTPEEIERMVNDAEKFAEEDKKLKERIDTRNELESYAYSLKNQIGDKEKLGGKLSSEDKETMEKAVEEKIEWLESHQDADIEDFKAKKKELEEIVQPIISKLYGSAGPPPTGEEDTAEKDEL
UniProt P20029, residues 20-655: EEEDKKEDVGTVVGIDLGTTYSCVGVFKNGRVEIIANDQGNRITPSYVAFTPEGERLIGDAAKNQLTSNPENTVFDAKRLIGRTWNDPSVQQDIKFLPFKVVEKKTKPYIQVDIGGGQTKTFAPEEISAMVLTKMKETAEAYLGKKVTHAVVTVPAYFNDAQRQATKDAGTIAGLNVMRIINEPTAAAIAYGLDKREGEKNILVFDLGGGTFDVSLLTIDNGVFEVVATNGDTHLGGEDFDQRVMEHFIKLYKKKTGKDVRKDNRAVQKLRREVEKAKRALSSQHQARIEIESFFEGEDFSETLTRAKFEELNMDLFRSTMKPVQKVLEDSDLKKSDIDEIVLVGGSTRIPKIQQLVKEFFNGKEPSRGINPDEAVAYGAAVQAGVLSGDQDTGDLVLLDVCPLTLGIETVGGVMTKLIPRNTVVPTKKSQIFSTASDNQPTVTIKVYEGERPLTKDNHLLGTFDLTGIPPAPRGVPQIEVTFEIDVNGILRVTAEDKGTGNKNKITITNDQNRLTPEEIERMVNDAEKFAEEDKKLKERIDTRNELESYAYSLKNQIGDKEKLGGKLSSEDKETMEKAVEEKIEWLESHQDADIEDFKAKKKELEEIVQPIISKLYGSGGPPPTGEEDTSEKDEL

No constants are given. Whether binding was seen depends on the method and setting. Binding seen in cells or lysates may run through a third protein. Some results given as binding are weak or reduced against the parent protein; the word gives no strength.

In test [1] the target is eYFP-ATZ (enhanced YFP-tagged α1-antitrypsin Z, E342K), expressed in Huh7.5 cells (human) (UniProt P01009). Description: co-IP; Huh7.5 CRT KO and WT cells transfected with eYFP-ATZ; cross-linked with 2 mM DTBP; 1% Triton X-100 lysis; precipitation with anti-AAT antibody and Protein G Sepharose or with GFP-Trap agarose; immunoblot.
The target of test [2] is eYFP-ATZ (enhanced YFP-tagged α1-antitrypsin Z, E342K), expressed in K42 mouse embryonic fibroblasts (human) (UniProt P01009). The experiment in a line: co-IP; K42 cells (CRT-/- or CRT WT) transfected with eYFP-AAT or eYFP-ATZ; cross-linked with 2 mM DTBP; 1% digitonin lysis; precipitation with anti-AAT polyclonal antibody and Protein G Sepharose; immunoblot.

Turning to “binding immunoglobulin protein (BiP, HSPA5), endogenous in Huh7.5 cells (from UniProt P11021 19-654)”, the binding result in test [1] is “binds”.
In the case of “binding immunoglobulin protein (BiP), endogenous in K42 mouse embryonic fibroblasts (from UniProt P20029 20-655)”, the binding result in test [2] is “binds”.

B1: calnexin (CNX), endogenous in Huh7.5 cells (protein, UniProt P27824 21-592)
chain: HDGHDDDVIDIEDDLDDVIEEVEDSKPDTTAPPSSPKVTYKAPVPTGEVYFADSFDRGTLSGWILSKAKKDDTDDEIAKYDGKWEVEEMKESKLPGDKGLVLMSRAKHHAISAKLNKPFLFDTKPLIVQYEVNFQNGIECGGAYVKLLSKTPELNLDQFHDKTPYTIMFGPDKCGEDYKLHFIFRHKNPKTGIYEEKHAKRPDADLKTYFTDKKTHLYTLILNPDNSFEILVDQSVVNSGNLLNDMTPPVNPSREIEDPEDRKPEDWDERPKIPDPEAVKPDDWDEDAPAKIPDEEATKPEGWLDDEPEYVPDPDAEKPEDWDEDMDGEWEAPQIANPRCESAPGCGVWQRPVIDNPNYKGKWKPPMIDNPSYQGIWKPRKIPNPDFFEDLEPFRMTPFSAIGLELWSMTSDIFFDNFIICADRRIVDDWANDGWGLKKAADGAAEPGVVGQMIEAAEERPWLWVVYILTVALPVFLVILFCCSGKKQTSGMEYKKTDAPQPDVKEEEEEKEEEKDKGDEEEEGEEKLEEKQKSDAEEDGGTVSQEEEDRKPKAEEDEILNRSPRNRKPRRE
Consider B1, for which the binding entry in test [1] is listed as “binds”.
